Experimental data published in patent US20140302113A1, “SYSTEMS, DEVICES, AND METHODS FOR EMBEDDING DRUG MOLECULES INTO MEDICAL CATHETERS OR TUBES” (priority 2011, published 2014).
Like-named read-outs stand apart in the source and are kept apart here.

CCN(CC)CC(=O)Nc1c(C)cccc1C [Lidocaine, lidocaine]
lidocaine absorbed into the wall of the catheter (initially undissolved particles) (out of 550 mg, Experiment 1, autoclave-type heating about one hour): about 470 mg | lidocaine absorbed into the wall of the catheter (initially undissolved particles) (out of 690 mg, Experiment 2, autoclave-type heating about 60 minutes): ~510 mg
